Source: PMC8616452

The chains behind the UniProt entries cited, without tags or fusion partners.
UniProt Q5U301: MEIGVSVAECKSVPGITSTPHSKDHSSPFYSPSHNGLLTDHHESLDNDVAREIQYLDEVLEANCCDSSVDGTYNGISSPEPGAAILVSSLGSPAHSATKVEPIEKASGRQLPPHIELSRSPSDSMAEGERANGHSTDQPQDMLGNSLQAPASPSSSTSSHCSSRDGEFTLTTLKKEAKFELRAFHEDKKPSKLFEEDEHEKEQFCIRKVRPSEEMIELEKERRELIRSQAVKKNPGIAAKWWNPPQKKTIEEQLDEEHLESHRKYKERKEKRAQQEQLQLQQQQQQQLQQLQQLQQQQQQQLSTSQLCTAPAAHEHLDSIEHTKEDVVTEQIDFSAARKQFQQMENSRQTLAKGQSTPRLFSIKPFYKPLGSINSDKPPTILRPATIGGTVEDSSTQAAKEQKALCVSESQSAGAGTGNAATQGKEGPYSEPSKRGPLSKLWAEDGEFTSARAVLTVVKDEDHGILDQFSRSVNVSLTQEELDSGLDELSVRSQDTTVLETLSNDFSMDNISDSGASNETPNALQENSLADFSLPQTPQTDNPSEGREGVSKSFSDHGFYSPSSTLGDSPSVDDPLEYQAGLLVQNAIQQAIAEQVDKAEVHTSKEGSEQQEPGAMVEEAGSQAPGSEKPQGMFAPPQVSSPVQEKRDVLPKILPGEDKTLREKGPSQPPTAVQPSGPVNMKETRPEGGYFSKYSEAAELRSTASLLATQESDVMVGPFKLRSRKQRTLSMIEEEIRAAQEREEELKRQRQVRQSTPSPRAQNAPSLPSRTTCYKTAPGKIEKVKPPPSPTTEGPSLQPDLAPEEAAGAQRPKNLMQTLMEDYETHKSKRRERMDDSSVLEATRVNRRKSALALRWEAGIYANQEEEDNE

Molecular target: A-kinase anchoring protein 2 (AKAP2) (rat (endogenous in rat heart and rat NVMs)) (UniProt Q5U301)
Test: affinity purification with mass spectrometry; endogenous AKAP2 immunoprecipitated from 40 mg of rat heart proteins with 22 µg anti-AKAP2 or control antibodies, protein-G sepharose; lysis in buffer A (20 mM Tris-HCl pH 7.4, 150 mM NaCl, 1% Triton X-100, 0.1% sodium deoxycholate); washes with buffer A containing 300 mM NaCl; shotgun LC-MS/MS

- binding: binds
B1: nucleoporin 35 (NUP35) (protein, UniProt Q68FY1 1-325)
chain: MAAFAVDPQAPTLGSEPMMLGSPTSPKPGANAQFLPGFLMGDLPAPVTPQPRSISGPSVGVMEMRSPLLAGGSPPQPVVPAHKDKSGAPPVRSIYDDISSPGLGSTPLPSRRQANISVLQSPLVGVTTPVTGQSMFSPANIGQPRKTTLSPAQLDPFYTQGDSLTSEDHLDDTWVTVFGFPQASASYILLQFAQYGNILKHVMSNTGNWMHIRYQSKLQARKALSKDGRIFGESIMIGVKPCIDKNVMENSDRGVLSSPSLAFTPPIRTLGTPTQPGSTPRVSTMRPLATAYKASTSDYQVISDRQTPKKDESLVSRAMEYMFGW

No constants are given. Whether binding was seen depends on the method and setting. In cells and extracts the contact can be indirect. These calls come from enrichment with a bait or labelling near it, and not all partners need be listed.
